Results taken from publication PMC10287724, “Structural basis of the interaction between BCL9-Pygo and LDB-SSBP complexes in assembling the Wnt enhanceosome” (Nature Communications, 2023).
These are yes or no findings as the source states them, for the method shown. Some entries that bind do so weakly or less than the wild type. Tags and fused reporters may be left off the sequences shown.

Target: T1, human LDB1(56–285), tags removed (human) (UniProt Q86U70)
T1 sequence: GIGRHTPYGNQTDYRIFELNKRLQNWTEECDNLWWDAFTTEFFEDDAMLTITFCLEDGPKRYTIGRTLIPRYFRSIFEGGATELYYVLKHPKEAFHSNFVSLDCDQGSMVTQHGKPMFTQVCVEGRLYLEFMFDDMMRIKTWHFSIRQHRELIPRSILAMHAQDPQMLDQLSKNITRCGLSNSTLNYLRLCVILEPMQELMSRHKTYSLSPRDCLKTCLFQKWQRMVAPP
Test: crystal structure; Pygo2(58–84) peptide incubated with LDB1-SSBP2 (co-expressed, co-purified) at 5:1; hanging drop, 100 mM Li2SO4, 100 mM sodium citrate pH 5.6, 1% PEG400, 10 mM DTT, microseeding; 2.45 Å; both purified

binding: binds
B1: human SSBP2(1–94), tag removed (domain or fragment, UniProt P81877 1-94, looked up)
chain: MYGKGKSNSSAVPSDSQAREKLALYVYEYLLHVGAQKSAQTFLSEIRWEKNITLGEPPGFLHSWWCVFWDLYCAAPERRETCEHSSEAKAFHDY
notes: chain of the crystallised complex; not shown: His, N-terminal, cleaved
